Measurements reported in patent US10041935B2, “Identification of olfactory receptors sensitive to different odorants” (New York University, priority 2013, dated 2018).

Test system: cultured rat hippocampal neurons
Test: Retention of fluorescence after 4% paraformaldehyde fixation of neurons
Assay type: cell-based
Details: 10 mM EGTA in washes

## CaMPARI v1: isolated polypeptide comprising CaM, EosFP, and M13, SEQ ID NO: 1; Calcium-Modulated Photoactivatable Ratiometric Integrator
  green fluorescence signal retained relative to images before fixation: 40%
  red fluorescence signal retained relative to images before fixation: 60%
